Results deposited as PubChem BioAssay AID743121 (NCATS, 2013).
Screen: 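Genes whose silencing strengthens cell killing by camptothecin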 (primary screen). System: MDA-MB-231 cells, a human breast cancer line. Knock-down reagent: single siRNA against human genes, 20 nM siRNA (0.8 pmol per well). Timing: 120 h (drug added 48 h after transfection, read 72 h later). Challenge: camptothecin 20 nM (about EC30) for 72 h; vehicle 0.1% DMSO in parallel plates. Detection: 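Cell viability by ATP luminescence (CellTiter-Glo) as % of non-targeting siRNA wells, and the log2 ratio of viability without drug over viability with camptothecin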. Scale: log2 vehicle/camptothecin viability: higher = stronger sensitisation to camptothecin; viability with camptothecin: higher = more viable cells. Active means: 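Active genes have an RSA gene-level p-value below 0.001, computed from the ratios of their separate siRNAs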.
This is a random part of about 26,000 deposited reagents. 167 of them (0.63%) count as active. 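Calls are per gene from RSA p-values that are not deposited; an individual active-marked siRNA can sensitise only weakly.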 Entries without a mark were called inactive. Reagents against one gene are numbered here. Further read-outs or replicates are left out here. Reagent sequences are not shown.

| target | reagent | log2 vehicle/camptothecin viability | viability with camptothecin (% of control) |
| --- | --- | --- | --- |
| PLK4 | 1 | -0.403 | 61.7 |
| PLK4 | 2 | -0.233 | 87.4 |
| PLK4 | 3 | -0.252 | 81.5 |
| PLK4 | 4 | -0.536 | 92.6 |
| TOMM40L | 1 | -0.154 | 110 |
| TOMM40L | 2 | 0.458 | 39.5 |
| TOMM40L | 3 | -0.191 | 57.1 |
| AP1S1 | 1 | -0.349 | 84.8 |
| AP1S1 | 2 | -0.114 | 88.6 |
| AP1S1 | 3 | -0.0854 | 61.3 |
| AP1S1 | 4 | 0.0654 | 77.4 |
| CYP2W1 | 1 | -0.115 | 46.1 |
| CYP2W1 | 2 | -0.136 | 110 |
| CYP2W1 | 3 | 0.0309 | 60 |
| CYP2W1 | 4 | -0.117 | 104 |
| LONRF3 | 1 | -0.0831 | 90.3 |
| LONRF3 | 2 | -0.272 | 86.3 |
| LONRF3 | 3 | -0.193 | 110 |
| LONRF3 | 4 | 0.0726 | 84.6 |
| CASP3 | 1 | -0.134 | 96.4 |
| CASP3 | 2 | -0.964 | 64.7 |
| CASP3 | 3 | -0.111 | 94.8 |
| CASP3 | 4 | -0.243 | 124 |
| CTNNA2 | 1 | -0.0141 | 66.9 |
| CTNNA2 | 2 | -0.422 | 70.9 |
| CTNNA2 | 3 | -0.404 | 84.8 |
| CTNNA2 | 4 | -0.339 | 57.1 |
| LIMK1 | 1 | -0.218 | 92.4 |
| LIMK1 | 2 | -0.143 | 108 |
| LIMK1 | 3 | 0.509 | 51.6 |
| LIMK1 | 4 | -0.0719 | 39.6 |
| RBL1 | 1 | 0.791 | 13 |
| RBL1 | 2 | -0.216 | 109 |
| RBL1 | 3 | -0.327 | 74.4 |
| ALKBH3 | 1 | -0.507 | 79.9 |
| ALKBH3 | 2 | -0.125 | 77.4 |
| ALKBH3 | 3 | -0.0869 | 98.6 |
| ALKBH3 | 4 | -0.539 | 72.5 |
| RNF7 | 1 | 0.267 | 68 |
| RNF7 | 2 | 0.0117 | 101 |
| RNF7 | 3 | -0.0175 | 85.5 |
| RNF7 | 4 | -0.235 | 111 |
| DHCR7 | 1 | -0.269 | 82.1 |
| DHCR7 | 2 | -0.112 | 68.6 |
| DHCR7 | 3 | -0.525 | 68.1 |
| PHF11 | 1 | -0.428 | 95.8 |
| PHF11 | 2 | 0.102 | 80.9 |
| PHF11 | 3 | -0.276 | 94.1 |
| PHF11 | 4 | -0.578 | 57.2 |

Copied from the list:
RBL1 #2, log2 vehicle/camptothecin viability: -0.216
Under “viability with camptothecin (% of control)”, ALKBH3 #4 has 72.5
Under “viability with camptothecin (% of control)”, TOMM40L #3 is entered as 57.1
